Experimental data: publication PMC4838878
No constants are given. Whether binding was seen depends on the method and setting. Binding seen in cells or lysates may run through a third protein. Some entries that bind do so weakly or less than the wild type. Tags and fused reporters may be left off the sequences shown.

Amino acid sequences for entries named in this document (tags omitted). A change or cut given only in a name is not applied to a line headed by its entry. Chains listed by the source or under a name are the forms on record and can include a tag or linker. Residues count along the entry.
UniProt F1LW30, residues 46-956: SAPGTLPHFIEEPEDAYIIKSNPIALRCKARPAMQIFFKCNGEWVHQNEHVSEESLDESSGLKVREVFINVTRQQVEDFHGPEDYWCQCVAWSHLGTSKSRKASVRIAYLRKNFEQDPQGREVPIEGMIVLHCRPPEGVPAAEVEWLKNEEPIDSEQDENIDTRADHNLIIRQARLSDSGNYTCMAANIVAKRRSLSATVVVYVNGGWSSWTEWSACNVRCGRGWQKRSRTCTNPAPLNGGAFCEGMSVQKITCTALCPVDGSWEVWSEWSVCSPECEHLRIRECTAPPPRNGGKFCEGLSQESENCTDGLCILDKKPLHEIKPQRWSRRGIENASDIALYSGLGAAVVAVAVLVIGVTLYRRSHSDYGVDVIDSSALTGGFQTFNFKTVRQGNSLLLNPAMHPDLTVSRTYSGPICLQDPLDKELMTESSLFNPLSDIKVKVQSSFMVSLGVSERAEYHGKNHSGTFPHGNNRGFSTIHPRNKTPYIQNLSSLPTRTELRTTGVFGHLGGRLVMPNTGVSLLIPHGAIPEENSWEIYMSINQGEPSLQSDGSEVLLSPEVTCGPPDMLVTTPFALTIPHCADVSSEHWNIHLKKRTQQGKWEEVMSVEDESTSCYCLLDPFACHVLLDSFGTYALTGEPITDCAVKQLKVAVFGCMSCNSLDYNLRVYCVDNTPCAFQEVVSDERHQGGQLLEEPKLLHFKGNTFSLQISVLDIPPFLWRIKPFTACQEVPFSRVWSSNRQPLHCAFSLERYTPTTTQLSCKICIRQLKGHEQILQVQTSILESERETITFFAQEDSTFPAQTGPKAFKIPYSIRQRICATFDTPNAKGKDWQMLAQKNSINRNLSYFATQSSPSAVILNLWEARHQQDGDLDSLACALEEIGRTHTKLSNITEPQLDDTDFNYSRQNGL
Myc-Lphn3-mV (Q80TS3, form named): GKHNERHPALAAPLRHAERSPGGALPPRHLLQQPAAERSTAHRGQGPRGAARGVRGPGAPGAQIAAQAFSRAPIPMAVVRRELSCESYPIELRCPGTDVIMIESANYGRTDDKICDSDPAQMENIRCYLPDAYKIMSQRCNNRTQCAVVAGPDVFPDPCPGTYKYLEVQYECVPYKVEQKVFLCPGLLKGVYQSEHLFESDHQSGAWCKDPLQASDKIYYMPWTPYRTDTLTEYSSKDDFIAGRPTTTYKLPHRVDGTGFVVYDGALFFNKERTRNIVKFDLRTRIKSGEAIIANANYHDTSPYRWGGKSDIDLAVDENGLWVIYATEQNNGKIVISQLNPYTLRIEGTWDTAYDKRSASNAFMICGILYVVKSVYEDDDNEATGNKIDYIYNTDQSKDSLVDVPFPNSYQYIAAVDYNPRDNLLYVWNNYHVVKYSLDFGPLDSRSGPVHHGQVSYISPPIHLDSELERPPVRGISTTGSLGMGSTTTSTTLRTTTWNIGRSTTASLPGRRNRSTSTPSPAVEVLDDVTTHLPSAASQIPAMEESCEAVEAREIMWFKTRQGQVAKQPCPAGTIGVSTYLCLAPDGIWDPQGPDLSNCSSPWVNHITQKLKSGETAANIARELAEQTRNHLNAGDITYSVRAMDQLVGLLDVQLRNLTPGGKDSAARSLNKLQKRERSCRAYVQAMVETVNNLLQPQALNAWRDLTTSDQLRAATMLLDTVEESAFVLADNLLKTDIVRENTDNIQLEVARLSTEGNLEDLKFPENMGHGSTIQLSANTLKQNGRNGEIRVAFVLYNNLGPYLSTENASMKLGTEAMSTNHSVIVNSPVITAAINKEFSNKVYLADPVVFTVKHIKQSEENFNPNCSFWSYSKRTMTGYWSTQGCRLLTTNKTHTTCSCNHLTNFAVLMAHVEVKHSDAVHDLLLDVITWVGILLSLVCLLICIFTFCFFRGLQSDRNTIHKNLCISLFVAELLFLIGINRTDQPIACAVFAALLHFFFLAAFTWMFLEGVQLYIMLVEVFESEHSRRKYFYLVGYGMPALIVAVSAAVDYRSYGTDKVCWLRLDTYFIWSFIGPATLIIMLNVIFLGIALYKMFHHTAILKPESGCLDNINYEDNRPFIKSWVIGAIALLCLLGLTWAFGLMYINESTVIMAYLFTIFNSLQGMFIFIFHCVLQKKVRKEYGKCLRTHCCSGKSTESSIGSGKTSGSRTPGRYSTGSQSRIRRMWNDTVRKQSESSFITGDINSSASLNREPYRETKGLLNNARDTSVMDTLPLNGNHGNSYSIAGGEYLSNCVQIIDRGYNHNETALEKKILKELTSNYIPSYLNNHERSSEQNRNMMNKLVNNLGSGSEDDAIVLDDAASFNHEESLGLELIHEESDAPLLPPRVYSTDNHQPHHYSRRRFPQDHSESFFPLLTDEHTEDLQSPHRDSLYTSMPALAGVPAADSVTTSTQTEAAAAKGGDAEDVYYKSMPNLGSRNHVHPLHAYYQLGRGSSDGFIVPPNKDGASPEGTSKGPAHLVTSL

How the values were obtained:
[1] = target: HA-Unc5D mono-Venus fusion protein (HA-Unc5D-mV) (rat) (UniProt F1LW30); test: co-IP; lysate of HEK293T cells co-transfected with FLRT2, Lphn3 and Unc5D constructs; mV-fused bait precipitated with rabbit anti-GFP antibody and protein G sepharose; 1% Triton X-100, 50 mM Tris-HCl pH 7.5, 150 mM NaCl; blots with anti-Flag, anti-HA, anti-Myc
[2] = target: Myc-Lphn3-mV (mouse) (UniProt Q80TS3); test: as above

binding [1]: binds | binding [2]: binds
B1: FLAG-FLRT2 (N-terminal FLAG tag, C-terminal Avitag) (receptor, UniProt Q8BLU0 35-660)
chain: ACPSVCRCDRNFVYCNERSLTSVPLGIPEGVTVLYLHNNQINNAGFPAELHNVQSVHTVYLYGNQLDEFPMNLPKNVRVLHLQENNIQTISRAALAQLLKLEELHLDDNSISTVGVEDGAFREAISLKLLFLSKNHLSSVPVGLPVDLQELRVDENRIAVISDMAFQNLTSLERLIVDGNLLTNKGIAEGTFSHLTKLKEFSIVRNSLSHPPPDLPGTHLIRLYLQDNQINHIPLTAFANLRKLERLDISNNQLRMLTQGVFDHLSNLKQLTARNNPWFCDCSIKWVTEWLKYIPSSLNVRGFMCQGPEQVRGMAVRELNMNLLSCPTTTPGLPVFTPAPSTVSPTTQSPTLSVPSPSRGSVPPAPTPSKLPTIPDWDGRERVTPPISERIQLSIHFVNDTSIQVSWLSLFTVMAYKLTWVKMGHSLVGGIVQERIVSGEKQHLSLVNLEPRSTYRICLVPLDAFNYRTVEDTICSEATTHASYLNNGSNTASSHEQTTSHSMGSPFLLAGLIGGAVIFVLVVLLSVFCWHMHKKGRYTSQKWKYNRGRRKDDYCEAGTKKDNSILEMTETSFQIVSLNNDQLLKGDFRLQPIYTPNGGINYTDCHIPNNMRYCNSSVPDLEHCHT
